We go through eight substances from patent US9227995B2 (DRUG DISCOVERY LABORATORY AS, priority 2010, dated 2016).

The data set can be described thus: general procedure: solution-phase peptide synthesis; EDC hydrochloride/HOBt hydrate; EDC hydrochloride/HOAt.
The mark [1] stands for this setting: coupling step, trifluoroacetate.
[2] abbreviates: late stage modification step, trifluoroacetate.

For “Methyl 2-((5S,14S)-5-(tert-butoxycarbonylamino)-8,8,11,11-tetramethyl-6,9,12-trioxo-16-oxa-1,7,10,13,19,20-hexaazabicyclo[16.2.1]henicosa-18 (21),19-dienecarboxamido)-2-methylpropanoate 20”, for the setting “cyclisation step, trifluoroacetate”, the cyclisation yield came out at 83%.

Consider “Methyl 2-methyl-2-((5S,14S)-8,8,11,11-tetramethyl-5-(2,2,6,6,9,9,12,12-octamethyl-4,7,10-trioxo-3-oxa-5,8,11-triazamidecanamido)-6,9,12-trioxo-16-oxa-1,7,10,13,19,20-hexaazabicyclo[16.2.1]henicosa-18 (21),19-dienecarboxamido)propanoate 23”, for which, where the note is “coupling step, over two steps (deprotection and coupling) per paragraph 95, trifluoroacetate”, the step yield is reported as 73%.

As to “N-Tert-Butoxycarbonyl α,α-Dimethylglycyl α,α-Dimethylglycyl O-Propynyl-L-Seryl α,α-Dimethylglycine Methyl Ester 16”, the step yield under setting [1] is 77%.

With “N-tert-butoxycarbonyl α,α-dimethylglycyl α,α-dimethylglycyl α,α-dimethylglycyl ε-azido-L-norvalyl α,α-dimethylglycyl α,α-dimethylglycyl O-propynyl-L-seryl α,α-dimethylglycyl methyl ester 21”, under setting [1], the step yield was 43%.

As to “N^α-Tert-Butoxycarbonyl ε-Azido-L-Norvalyl α,α-Dimethylglycyl α,α-Dimethylglycyl O-Propynyl-L-Seryl α,α-Dimethylglycine Methyl Ester 18”, the step yield by setting is: (coupling step, trifluoroacetate, run 1) 72%; (coupling step, trifluoroacetate, run 2) 19%.

Under setting [1], “N^α-Tert-Butoxycarbonyl-N^ε-Azido-L-Norvalyl L-Valyl L-Valyl O-Propynyl L-Seryl Glycine Methyl Ester 34” yielded a step yield of 69%.

Turning to “α,α-Dimethylglycyl α,α-Dimethylglycyl O-Propynyl-L-Seryl α,α-Dimethylglycine Methyl Ester Trifluoroacetate 17”, under setting [2], the step yield is 100%.

On to “ε-Azido-L-Norvalyl α,α-Dimethylglycyl α,α-Dimethylglycyl O-Propynyl-L-Seryl α,α-Dimethylglycine Methyl Ester Trifluoroacetate 19”, for which, under setting [2], the step yield came to 94%.
